Measured values taken from PMC10433963.
No constants are given. Whether binding was seen depends on the method and setting. Binding seen in cells or lysates may run through a third protein. Here binding means that the protein was enriched with, or labelled near, the bait; the list need not be complete. A no says only that the protein was not detected with the bait.

Protein sequences, listed by entry. Tags and fused reporters are not part of them. Lines headed by an entry give the natural chain unless they say otherwise; changes in a name come on top. Residues count along the entry.
ClpC1^NTD (ClpC1 N-terminal domain alone, aa 1 to 147, C-terminal 3xFLAG) (A0R574, residues 1-147): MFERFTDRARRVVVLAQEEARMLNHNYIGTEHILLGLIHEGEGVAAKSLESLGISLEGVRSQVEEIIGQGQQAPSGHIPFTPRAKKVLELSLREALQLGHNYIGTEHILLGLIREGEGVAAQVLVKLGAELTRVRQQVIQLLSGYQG
ClpC1^CORE (ClpC1 lacking the NTD, aa 158 to 848, C-terminal 3xFLAG) (A0R574, residues 158-848): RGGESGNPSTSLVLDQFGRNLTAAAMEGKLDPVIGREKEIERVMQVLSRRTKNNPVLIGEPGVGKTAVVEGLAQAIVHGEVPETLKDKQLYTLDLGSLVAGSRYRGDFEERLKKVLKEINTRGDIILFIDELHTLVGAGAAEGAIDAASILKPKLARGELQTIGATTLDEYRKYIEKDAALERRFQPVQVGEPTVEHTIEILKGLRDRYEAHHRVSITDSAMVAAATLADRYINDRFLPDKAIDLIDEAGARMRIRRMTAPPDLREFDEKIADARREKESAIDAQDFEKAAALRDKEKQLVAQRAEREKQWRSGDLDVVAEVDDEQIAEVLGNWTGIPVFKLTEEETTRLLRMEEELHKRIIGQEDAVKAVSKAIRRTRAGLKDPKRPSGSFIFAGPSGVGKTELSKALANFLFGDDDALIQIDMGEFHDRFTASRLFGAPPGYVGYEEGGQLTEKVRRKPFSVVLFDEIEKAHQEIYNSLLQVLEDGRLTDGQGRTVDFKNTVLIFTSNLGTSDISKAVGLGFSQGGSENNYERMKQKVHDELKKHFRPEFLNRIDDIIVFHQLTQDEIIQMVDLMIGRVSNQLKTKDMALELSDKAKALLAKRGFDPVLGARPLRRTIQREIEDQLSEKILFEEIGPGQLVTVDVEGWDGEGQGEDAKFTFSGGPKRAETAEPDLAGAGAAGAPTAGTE
UniProt A0QSL6: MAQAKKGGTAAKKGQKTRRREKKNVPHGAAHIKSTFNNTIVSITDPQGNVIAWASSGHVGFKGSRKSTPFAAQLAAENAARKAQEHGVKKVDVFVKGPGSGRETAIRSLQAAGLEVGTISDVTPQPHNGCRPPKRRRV
UniProt A0R202: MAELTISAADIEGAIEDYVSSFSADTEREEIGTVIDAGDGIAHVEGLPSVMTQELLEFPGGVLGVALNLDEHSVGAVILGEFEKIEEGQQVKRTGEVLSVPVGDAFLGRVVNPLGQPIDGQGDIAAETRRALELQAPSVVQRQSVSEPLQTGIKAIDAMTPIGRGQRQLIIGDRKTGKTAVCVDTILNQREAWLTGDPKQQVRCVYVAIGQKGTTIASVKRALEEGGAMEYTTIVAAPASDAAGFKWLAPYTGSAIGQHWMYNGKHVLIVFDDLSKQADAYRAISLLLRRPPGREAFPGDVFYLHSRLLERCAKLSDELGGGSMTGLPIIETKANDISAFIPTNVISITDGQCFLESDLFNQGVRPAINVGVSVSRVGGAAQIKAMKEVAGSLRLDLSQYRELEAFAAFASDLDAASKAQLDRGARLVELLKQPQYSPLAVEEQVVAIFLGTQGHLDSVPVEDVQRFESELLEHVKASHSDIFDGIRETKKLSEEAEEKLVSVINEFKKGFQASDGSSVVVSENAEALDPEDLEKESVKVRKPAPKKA
UniProt A0QV32: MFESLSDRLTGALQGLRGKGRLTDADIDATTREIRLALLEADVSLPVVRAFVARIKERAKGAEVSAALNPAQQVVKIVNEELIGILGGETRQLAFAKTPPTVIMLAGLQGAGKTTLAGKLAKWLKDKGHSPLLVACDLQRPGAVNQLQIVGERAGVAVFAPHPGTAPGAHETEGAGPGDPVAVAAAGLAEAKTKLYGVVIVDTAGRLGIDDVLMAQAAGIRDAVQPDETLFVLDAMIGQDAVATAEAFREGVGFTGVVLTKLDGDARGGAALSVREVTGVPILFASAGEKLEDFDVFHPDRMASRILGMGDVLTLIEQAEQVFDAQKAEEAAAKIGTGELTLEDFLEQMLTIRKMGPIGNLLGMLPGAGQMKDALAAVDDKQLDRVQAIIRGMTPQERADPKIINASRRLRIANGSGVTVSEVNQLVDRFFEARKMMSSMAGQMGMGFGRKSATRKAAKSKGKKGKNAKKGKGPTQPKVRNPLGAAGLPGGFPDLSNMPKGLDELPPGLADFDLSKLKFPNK
UniProt A0QQQ1: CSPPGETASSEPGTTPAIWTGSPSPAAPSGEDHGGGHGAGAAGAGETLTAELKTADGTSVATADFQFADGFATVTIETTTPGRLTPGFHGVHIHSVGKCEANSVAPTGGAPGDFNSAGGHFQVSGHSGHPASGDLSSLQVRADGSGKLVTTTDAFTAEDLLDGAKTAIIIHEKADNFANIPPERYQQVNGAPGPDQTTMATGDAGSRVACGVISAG
UniProt A0R200: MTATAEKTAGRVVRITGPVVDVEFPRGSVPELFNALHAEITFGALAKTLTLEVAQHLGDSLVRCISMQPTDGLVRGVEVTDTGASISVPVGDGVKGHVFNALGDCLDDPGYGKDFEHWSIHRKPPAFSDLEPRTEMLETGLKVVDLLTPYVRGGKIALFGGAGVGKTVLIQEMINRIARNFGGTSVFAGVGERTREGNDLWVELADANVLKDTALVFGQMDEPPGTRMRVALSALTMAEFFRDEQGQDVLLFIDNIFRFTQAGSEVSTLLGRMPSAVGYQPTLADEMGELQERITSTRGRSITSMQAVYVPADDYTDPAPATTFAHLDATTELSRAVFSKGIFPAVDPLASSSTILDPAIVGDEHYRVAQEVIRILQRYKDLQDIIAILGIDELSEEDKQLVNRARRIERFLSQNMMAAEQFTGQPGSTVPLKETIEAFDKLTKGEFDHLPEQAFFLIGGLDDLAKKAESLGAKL
UniProt A0R617: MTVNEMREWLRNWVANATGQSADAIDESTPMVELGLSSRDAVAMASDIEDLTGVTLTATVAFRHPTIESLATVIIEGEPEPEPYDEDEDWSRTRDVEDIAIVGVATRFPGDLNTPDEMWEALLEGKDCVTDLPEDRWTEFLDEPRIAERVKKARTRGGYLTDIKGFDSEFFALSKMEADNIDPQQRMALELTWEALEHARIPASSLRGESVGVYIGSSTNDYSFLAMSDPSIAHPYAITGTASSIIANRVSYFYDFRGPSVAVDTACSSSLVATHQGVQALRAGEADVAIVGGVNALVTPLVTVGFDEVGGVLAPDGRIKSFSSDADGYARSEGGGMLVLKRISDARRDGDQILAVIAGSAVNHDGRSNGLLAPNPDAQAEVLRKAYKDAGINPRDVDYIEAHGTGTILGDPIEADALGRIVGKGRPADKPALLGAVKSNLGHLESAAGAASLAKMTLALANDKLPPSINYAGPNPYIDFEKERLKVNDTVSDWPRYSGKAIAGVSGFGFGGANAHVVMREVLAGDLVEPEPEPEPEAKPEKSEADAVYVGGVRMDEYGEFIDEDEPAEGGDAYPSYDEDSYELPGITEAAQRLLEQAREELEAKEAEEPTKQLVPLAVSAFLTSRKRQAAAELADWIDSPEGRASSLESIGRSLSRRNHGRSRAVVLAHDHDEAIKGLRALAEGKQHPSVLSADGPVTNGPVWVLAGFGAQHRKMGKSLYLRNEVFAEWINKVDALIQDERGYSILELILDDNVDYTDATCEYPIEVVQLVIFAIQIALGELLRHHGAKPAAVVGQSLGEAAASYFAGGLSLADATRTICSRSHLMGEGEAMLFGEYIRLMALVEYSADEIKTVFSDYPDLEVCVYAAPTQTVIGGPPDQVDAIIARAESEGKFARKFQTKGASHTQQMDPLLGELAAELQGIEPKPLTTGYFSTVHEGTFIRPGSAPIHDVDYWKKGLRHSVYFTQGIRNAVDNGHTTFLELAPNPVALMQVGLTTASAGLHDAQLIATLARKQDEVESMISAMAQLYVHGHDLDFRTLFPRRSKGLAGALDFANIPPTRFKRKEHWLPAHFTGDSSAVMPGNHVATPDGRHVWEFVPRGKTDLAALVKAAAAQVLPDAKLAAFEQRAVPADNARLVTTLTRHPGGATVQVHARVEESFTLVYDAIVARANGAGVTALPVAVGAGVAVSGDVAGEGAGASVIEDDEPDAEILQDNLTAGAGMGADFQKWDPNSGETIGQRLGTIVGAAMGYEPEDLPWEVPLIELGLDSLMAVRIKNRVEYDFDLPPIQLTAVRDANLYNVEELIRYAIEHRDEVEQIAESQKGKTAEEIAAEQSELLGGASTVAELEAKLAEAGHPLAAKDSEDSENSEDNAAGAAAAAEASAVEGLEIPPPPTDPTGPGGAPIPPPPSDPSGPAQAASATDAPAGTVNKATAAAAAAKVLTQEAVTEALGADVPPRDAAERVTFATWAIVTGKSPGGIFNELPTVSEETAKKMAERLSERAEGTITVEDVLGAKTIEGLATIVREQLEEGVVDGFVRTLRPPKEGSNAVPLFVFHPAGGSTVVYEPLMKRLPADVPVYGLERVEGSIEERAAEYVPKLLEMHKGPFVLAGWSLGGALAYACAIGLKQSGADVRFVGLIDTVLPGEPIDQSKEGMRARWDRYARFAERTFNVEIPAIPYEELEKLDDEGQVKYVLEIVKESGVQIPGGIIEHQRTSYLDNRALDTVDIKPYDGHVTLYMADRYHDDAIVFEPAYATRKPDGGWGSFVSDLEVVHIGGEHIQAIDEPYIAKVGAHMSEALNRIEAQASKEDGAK
UniProt P71533: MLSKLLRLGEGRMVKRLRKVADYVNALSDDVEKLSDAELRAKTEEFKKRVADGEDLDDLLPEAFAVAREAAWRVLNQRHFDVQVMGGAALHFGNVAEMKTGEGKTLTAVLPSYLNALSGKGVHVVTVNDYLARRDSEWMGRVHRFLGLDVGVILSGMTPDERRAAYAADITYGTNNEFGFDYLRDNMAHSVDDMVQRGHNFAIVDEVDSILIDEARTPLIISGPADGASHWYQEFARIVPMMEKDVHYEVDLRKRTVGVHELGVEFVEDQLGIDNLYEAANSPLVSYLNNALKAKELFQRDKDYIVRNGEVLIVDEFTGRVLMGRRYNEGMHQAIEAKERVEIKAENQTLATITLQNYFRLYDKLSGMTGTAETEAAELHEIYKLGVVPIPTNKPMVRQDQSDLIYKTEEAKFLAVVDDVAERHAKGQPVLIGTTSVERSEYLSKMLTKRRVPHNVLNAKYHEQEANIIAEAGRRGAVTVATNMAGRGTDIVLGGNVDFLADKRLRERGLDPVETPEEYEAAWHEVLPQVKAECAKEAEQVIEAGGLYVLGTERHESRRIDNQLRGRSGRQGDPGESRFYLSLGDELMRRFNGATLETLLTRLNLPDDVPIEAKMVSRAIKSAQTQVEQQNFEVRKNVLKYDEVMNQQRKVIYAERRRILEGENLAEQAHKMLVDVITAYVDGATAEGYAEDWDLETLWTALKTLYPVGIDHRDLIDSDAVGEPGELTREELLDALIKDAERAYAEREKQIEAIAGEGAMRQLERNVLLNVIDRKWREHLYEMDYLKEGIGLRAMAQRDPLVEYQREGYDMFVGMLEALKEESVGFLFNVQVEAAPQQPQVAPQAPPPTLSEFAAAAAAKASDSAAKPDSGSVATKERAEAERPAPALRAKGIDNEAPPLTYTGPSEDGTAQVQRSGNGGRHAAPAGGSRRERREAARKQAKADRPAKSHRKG
UniProt A0R052: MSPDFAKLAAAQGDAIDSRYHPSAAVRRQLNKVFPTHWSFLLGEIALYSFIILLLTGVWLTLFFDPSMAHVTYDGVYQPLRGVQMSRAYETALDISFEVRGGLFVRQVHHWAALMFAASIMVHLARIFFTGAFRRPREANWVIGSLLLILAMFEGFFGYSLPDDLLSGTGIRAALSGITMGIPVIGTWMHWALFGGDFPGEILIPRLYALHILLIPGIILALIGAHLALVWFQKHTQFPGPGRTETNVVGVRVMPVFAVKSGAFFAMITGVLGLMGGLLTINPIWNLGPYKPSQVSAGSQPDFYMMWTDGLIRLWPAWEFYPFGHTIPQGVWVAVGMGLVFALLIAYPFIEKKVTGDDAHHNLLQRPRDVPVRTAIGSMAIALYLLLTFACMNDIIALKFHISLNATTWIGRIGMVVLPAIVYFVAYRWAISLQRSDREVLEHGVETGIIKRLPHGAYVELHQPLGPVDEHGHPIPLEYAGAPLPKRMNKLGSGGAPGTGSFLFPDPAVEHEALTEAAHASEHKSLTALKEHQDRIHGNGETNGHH

What was measured:
[1] = biological target: ClpC1^CORE (ClpC1 lacking the NTD, aa 158 to 848, C-terminal 3xFLAG) (M. smegmatis) (UniProt A0R574); experiment: affinity purification with mass spectrometry; 3xFLAG-tagged ClpC1 construct expressed in M. smegmatis MC2155; lysate incubated with anti-FLAG M2 beads 1 h at 4°C in 25 mM HEPES, 10 mM MgCl2, 200 mM KCl, 0.1 mM EDTA, 10 mM ATP, pH 7.5; SDS-PAGE, in-gel trypsin digestion, LC-MS/MS; proteins seen in at least two of three biological replicates; proteins of the empty vector control ignored
[2] = biological target: ClpC1^NTD (ClpC1 N-terminal domain alone, aa 1 to 147, C-terminal 3xFLAG) (M. smegmatis) (UniProt A0R574); experiment: as above

binding [1] | binding [2] | Substance
binds | no binding | 30S ribosomal protein S11 (from UniProt A0QSL6 1-138)
no binding | binds | ATP synthase subunit alpha (from UniProt A0R202 1-548)
binds | binds | Signal recognition particle protein (fifty-four homolog) (from UniProt A0QV32 1-522)
binds | binds | Superoxide dismutase [Cu-Zn] (EC 1.15.1.1) (from UniProt A0QQQ1)

Further lines, the substance ahead of its results:

Substance | binding [1] | binding [2]
ATP synthase subunit beta (from UniProt A0R200 1-475) | binds | binds
Polyketide synthase Pks13 (from UniProt A0R617 1-1816) |  | binds
Protein translocase subunit SecA 1 (from UniProt P71533 1-953) | binds | binds
Ubiquinol-cytochrome c reductase cytochrome b subunit (from UniProt A0R052 1-546) | binds | no binding
